From publication PMC8938454
These are yes or no findings as the source states them, for the method shown. Binding seen in cells or lysates may run through a third protein. Where a sequence is shown, tags or fusion partners need not be part of it.

Protein sequences, listed by entry. Tags and fused reporters are not part of them.
UniProt P51149: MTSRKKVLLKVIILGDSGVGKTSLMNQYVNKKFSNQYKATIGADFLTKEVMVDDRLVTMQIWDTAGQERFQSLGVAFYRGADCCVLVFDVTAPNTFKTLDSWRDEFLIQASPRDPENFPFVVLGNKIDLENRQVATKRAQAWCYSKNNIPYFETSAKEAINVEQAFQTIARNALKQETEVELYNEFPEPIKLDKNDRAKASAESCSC

Target: T1, RUFY3-HA, expressed in HEK293T (human) (UniProt Q7L099)
T1 sequence: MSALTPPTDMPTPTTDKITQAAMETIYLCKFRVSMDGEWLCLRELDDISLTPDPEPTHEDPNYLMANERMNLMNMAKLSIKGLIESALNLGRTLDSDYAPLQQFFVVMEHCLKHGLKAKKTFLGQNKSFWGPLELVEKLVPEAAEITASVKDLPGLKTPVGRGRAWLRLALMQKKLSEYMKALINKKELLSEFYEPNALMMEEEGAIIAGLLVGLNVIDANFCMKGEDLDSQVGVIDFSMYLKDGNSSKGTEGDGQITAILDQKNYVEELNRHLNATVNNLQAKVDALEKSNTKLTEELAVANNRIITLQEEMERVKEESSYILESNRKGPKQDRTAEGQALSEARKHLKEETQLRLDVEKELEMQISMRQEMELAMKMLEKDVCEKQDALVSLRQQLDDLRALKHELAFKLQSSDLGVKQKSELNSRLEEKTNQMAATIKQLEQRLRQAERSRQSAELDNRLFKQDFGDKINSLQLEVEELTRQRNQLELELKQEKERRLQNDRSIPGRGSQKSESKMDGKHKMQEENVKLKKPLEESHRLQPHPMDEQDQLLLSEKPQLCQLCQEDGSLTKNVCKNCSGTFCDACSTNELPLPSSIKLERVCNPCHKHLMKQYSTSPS
Assay: co-IP; lysates of HEK293T cells expressing the HA-tagged bait (RUFY3-HA, Fig. 4b; Arl8b-HA alone or with RUFY3-FLAG, Fig. 5j); precipitates blotted for endogenous partners; TAP lysis buffer

Rab7, endogenous in HEK293T (from UniProt P51149 1-207)
binding: no binding
